Data as given in patent US6545011B2, “Substituted 4,9-dihydrocyclopenta[imn]phenanthridine-5-ones, derivatives thereof and their uses” (Guilford Pharmaceuticals Inc., priority 2000, dated 2003).

Tested on: focal cerebral ischemia in male Long-Evans rats
Assay: Focal cerebral ischemia (right distal MCA cauterization with temporary bilateral CCA occlusion, 90 min)
Type: in vivo, rat
Conditions: 10 mg/kg; laser Doppler; control 20.8±7.7

## O=C1NCCc2c(OCCCCN3CCCCC3)cccc21 [DPQ, 3,4-dihydro-5-[4-(1-piperidinyl)-butoxy]-1(2H)-isoquinolinone]
  relative blood flow in the right parietal cortex during occlusion, % of the baseline: 1.4±7.7%
